Laboratory results published in patent publication US11224609B2, “Mithramycin derivatives having increased selectivity and anti-cancer activity” (University of Kentucky Research Foundation, priority 2017, dated 2022).
Some of these results come from one statement about several compounds together.

Tested on: Ewing sarcoma cell lines (TC-32, 5838, RD-ES, TC-71, A-673, ES-2, ES-7, ES-8)
Test: Median GI50 in panel of Ewing sarcoma cell lines
Settings: for Selectivity Index ratio Analogues:MTM (1): selectivity index relative to MTM (1); for GI50: read-out: Median GI50 in Ewing sarcoma cell lines, median over 8 Ewing sarcoma cell lines, 72 h

Compound | Selectivity Index ratio Analogues:MTM (1) | GI50 [nM]
COC(=O)C(Cc1c[nH]c2ccccc12)NC(=O)C(Cc1ccccc1)NC(=O)C(OC)C1Cc2cc3cc(OC4CC(OC5CC(O)C(O)C(C)O5)C(O)C(C)O4)c(C)c(O)c3c(O)c2C(=O)C1OC1CC(OC2CC(OC3CC(C)(O)C(O)C(C)O3)C(O)C(C)O2)C(O)C(C)O1 (stereo not shown) [Analogue 60, MTMSA-Phe-Trp] | > 10 | –
COC(=O)C(Cc1c[nH]c2ccccc12)NC(=O)C(Cc1c[nH]c2ccccc12)NC(=O)C(OC)C1Cc2cc3cc(OC4CC(OC5CC(O)C(O)C(C)O5)C(O)C(C)O4)c(C)c(O)c3c(O)c2C(=O)C1OC1CC(OC2CC(OC3CC(C)(O)C(O)C(C)O3)C(O)C(C)O2)C(O)C(C)O1 (stereo not shown) [Analogue 61, MTMSA-Trp-Trp] | > 10 | –
C=CCOc1ccc2[nH]cc(CC(NC(=O)C(OC)C3Cc4cc5cc(OC6CC(OC7CC(O)C(O)C(C)O7)C(O)C(C)O6)c(C)c(O)c5c(O)c4C(=O)C3OC3CC(OC4CC(OC5CC(C)(O)C(O)C(C)O5)C(O)C(C)O4)C(O)C(C)O3)C(=O)OC)c2c1 (stereo not shown) [Analogue 51] | – | > 250
COC(=O)C(Cc1c[nH]c2cc(F)ccc12)NC(=O)C(OC)C1Cc2cc3cc(OC4CC(OC5CC(O)C(O)C(C)O5)C(O)C(C)O4)c(C)c(O)c3c(O)c2C(=O)C1OC1CC(OC2CC(OC3CC(C)(O)C(O)C(C)O3)C(O)C(C)O2)C(O)C(C)O1 (stereo not shown) [Analogue 56] | – | > 250
